# Experimental data published in the supplement of paper PMC8728848.
# Some of the results follow.
# How the values were obtained:
# Test in all cases: glycan array binding signal (z-score within array); higher = stronger binding
# Settings in all cases: glycan notation: IUPAC condensed, linker removed
# [1] = molecular target: GlcNAc(b1-2)[GlcNAc(b1-4)]Man(a1-3)[GlcNAc(b1-4)][GlcNAc(b1-2)[GlcNAc(b1-6)]Man(a1-6)]Man(b1-4)GlcNAc(b1-4)GlcNAc
# Summary of the method: (§1)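 Glycan array data were curated from 3228 arrays in the Consortium for Functional Glycomics database and kept only where the protein sequence was available. Glycan names were converted to IUPAC-condensed notation, and columns mapping to the same glycan were averaged. The binding signal is a within-array Z-score, averaged across arrays of the same protein sequence at different concentrations or buffers and across linkers. Negative Z-scores can be read as non-binding.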
# [2] = molecular target: GlcNAc(b1-2)[GlcNAc(b1-4)]Man(a1-3)[GlcNAc(b1-4)][GlcNAc(b1-2)[GlcNAc(b1-6)]Man(a1-6)]Man(b1-4)GlcNAc(b1-4)[Fuc(a1-6)]GlcNAc
# Summary of the method: as §1
# [3] = molecular target: GlcNAc(b1-2)[GlcNAc(b1-6)]Man(a1-6)[GlcNAc(b1-2)Man(a1-3)]Man(b1-4)GlcNAc(b1-4)GlcNAc
# Summary of the method: as §1
# [4] = molecular target: GlcNAc(b1-2)[GlcNAc(b1-6)]Man(a1-6)[GlcNAc(b1-2)Man(a1-3)]Man(b1-4)GlcNAc(b1-4)[Fuc(a1-6)]GlcNAc
# Summary of the method: as §1
# [5] = molecular target: GlcNAc(b1-2)[GlcNAc(b1-6)]Man(a1-6)[GlcNAc(b1-4)][GlcNAc(b1-2)Man(a1-3)]Man(b1-4)GlcNAc(b1-4)GlcNAc
# Summary of the method: as §1
# GlcNAc(b1-3)Fuc = molecular target: GlcNAc(b1-3)Fuc
# Summary of the method: as §1
# GlcNAc(b1-3)Gal = molecular target: GlcNAc(b1-3)Gal
# Summary of the method: as §1
# [6] = molecular target: GlcNAc(b1-3)Gal(b1-3)GalNAc
# Summary of the method: as §1
# GlcNAc(b1-3)Gal(b1-4)Glc = molecular target: GlcNAc(b1-3)Gal(b1-4)Glc
# Summary of the method: as §1
# [7] = molecular target: GlcNAc(b1-3)Gal(b1-4)GlcNAc
# Summary of the method: as §1
# [8] = molecular target: GlcNAc(b1-3)Gal(b1-4)GlcNAc(b1-2)Man(a1-3)[GlcNAc(b1-3)Gal(b1-4)GlcNAc(b1-2)Man(a1-6)]Man(b1-4)GlcNAc(b1-4)GlcNAc
# Summary of the method: as §1
# [9] = molecular target: GlcNAc(b1-3)Gal(b1-4)GlcNAc(b1-2)Man(a1-3)[GlcNAc(b1-3)Gal(b1-4)GlcNAc(b1-2)Man(a1-6)]Man(b1-4)GlcNAc(b1-4)[Fuc(a1-6)]GlcNAc
# Summary of the method: as §1
# [10] = molecular target: GlcNAc(b1-3)Gal(b1-4)GlcNAc(b1-2)[GlcNAc(b1-3)Gal(b1-4)GlcNAc(b1-6)]Man(a1-6)[GlcNAc(b1-3)Gal(b1-4)GlcNAc(b1-2)Man(a1-3)]Man(b1-4)GlcNAc(b1-4)GlcNAc
# Summary of the method: as §1
# [11] = molecular target: GlcNAc(b1-3)Gal(b1-4)GlcNAc(b1-3)Gal(b1-4)GlcNAc
# Summary of the method: as §1
# [12] = molecular target: GlcNAc(b1-3)Gal(b1-4)GlcNAc(b1-3)Gal(b1-4)GlcNAc(b1-2)Man(a1-3)[GlcNAc(b1-3)Gal(b1-4)GlcNAc(b1-3)Gal(b1-4)GlcNAc(b1-2)Man(a1-6)]Man(b1-4)GlcNAc(b1-4)GlcNAc
# Summary of the method: as §1
# [13] = molecular target: GlcNAc(b1-3)Gal(b1-4)GlcNAc(b1-3)Gal(b1-4)GlcNAc(b1-2)Man(a1-3)[GlcNAc(b1-3)Gal(b1-4)GlcNAc(b1-3)Gal(b1-4)GlcNAc(b1-2)Man(a1-6)]Man(b1-4)GlcNAc(b1-4)[Fuc(a1-6)]GlcNAc
# Summary of the method: as §1
# [14] = molecular target: GlcNAc(b1-3)Gal(b1-4)GlcNAc(b1-3)Gal(b1-4)GlcNAc(b1-2)[GlcNAc(b1-3)Gal(b1-4)GlcNAc(b1-3)Gal(b1-4)GlcNAc(b1-6)]Man(a1-6)[GlcNAc(b1-3)Gal(b1-4)GlcNAc(b1-3)Gal(b1-4)GlcNAc(b1-2)Man(a1-3)]Man(b1-4)GlcNAc(b1-4)[Fuc(a1-6)]GlcNAc
# Summary of the method: as §1
# [15] = molecular target: GlcNAc(b1-3)Gal(b1-4)GlcNAc(b1-3)Gal(b1-4)GlcNAc(b1-3)Gal(b1-4)GlcNAc(b1-2)Man(a1-3)[GlcNAc(b1-3)Gal(b1-4)GlcNAc(b1-3)Gal(b1-4)GlcNAc(b1-3)Gal(b1-4)GlcNAc(b1-2)Man(a1-6)]Man(b1-4)GlcNAc(b1-4)GlcNAc
# Summary of the method: as §1
# [16] = molecular target: GlcNAc(b1-3)Gal(b1-4)GlcNAc(b1-3)Gal(b1-4)GlcNAc(b1-3)Gal(b1-4)GlcNAc(b1-2)Man(a1-3)[GlcNAc(b1-3)Gal(b1-4)GlcNAc(b1-3)Gal(b1-4)GlcNAc(b1-3)Gal(b1-4)GlcNAc(b1-2)Man(a1-6)]Man(b1-4)GlcNAc(b1-4)[Fuc(a1-6)]GlcNAc
# Summary of the method: as §1
# [17] = molecular target: GlcNAc(b1-3)Gal(b1-4)GlcNAc(b1-3)Gal(b1-4)GlcNAc(b1-3)Gal(b1-4)GlcNAc(b1-2)[GlcNAc(b1-3)Gal(b1-4)GlcNAc(b1-3)Gal(b1-4)GlcNAc(b1-3)Gal(b1-4)GlcNAc(b1-6)]Man(a1-6)[GlcNAc(b1-3)Gal(b1-4)GlcNAc(b1-3)Gal(b1-4)GlcNAc(b1-3)Gal(b1-4)GlcNAc(b1-2)Man(a1-3)]Man(b1-4)GlcNAc(b1-4)[Fuc(a1-6)]GlcNAc
# Summary of the method: as §1
# [18] = molecular target: GlcNAc(b1-3)Gal(b1-4)GlcNAc(b1-3)Gal(b1-4)GlcNAc(b1-3)Gal(b1-4)GlcNAc(b1-3)Gal(b1-4)GlcNAc(b1-2)Man(a1-3)[GlcNAc(b1-3)Gal(b1-4)GlcNAc(b1-3)Gal(b1-4)GlcNAc(b1-3)Gal(b1-4)GlcNAc(b1-3)Gal(b1-4)GlcNAc(b1-2)Man(a1-6)]Man(b1-4)GlcNAc(b1-4)GlcNAc
# Summary of the method: as §1
# [19] = molecular target: GlcNAc(b1-3)Gal(b1-4)GlcNAc(b1-3)Gal(b1-4)GlcNAc(b1-3)Gal(b1-4)GlcNAc(b1-3)Gal(b1-4)GlcNAc(b1-2)Man(a1-3)[GlcNAc(b1-3)Gal(b1-4)GlcNAc(b1-3)Gal(b1-4)GlcNAc(b1-3)Gal(b1-4)GlcNAc(b1-3)Gal(b1-4)GlcNAc(b1-2)Man(a1-6)]Man(b1-4)GlcNAc(b1-4)[Fuc(a1-6)]GlcNAc
# Summary of the method: as §1
# [20] = molecular target: GlcNAc(b1-3)Gal(b1-4)GlcNAc(b1-3)Gal(b1-4)GlcNAc(b1-3)Gal(b1-4)GlcNAc(b1-3)Gal(b1-4)GlcNAc(b1-2)[GlcNAc(b1-3)Gal(b1-4)GlcNAc(b1-3)Gal(b1-4)GlcNAc(b1-3)Gal(b1-4)GlcNAc(b1-3)Gal(b1-4)GlcNAc(b1-6)]Man(a1-6)[GlcNAc(b1-3)Gal(b1-4)GlcNAc(b1-3)Gal(b1-4)GlcNAc(b1-3)Gal(b1-4)GlcNAc(b1-3)Gal(b1-4)GlcNAc(b1-2)Man(a1-3)]Man(b1-4)GlcNAc(b1-4)[Fuc(a1-6)]GlcNAc
# Summary of the method: as §1
binder,measurement,setting,value
Pwp1 (Candida glabrata) (protein) MGSSHHHHHHSSGLVPRGSHMASANPISITNVCQFPDNWARTAGFQATTVRLGLTIASNTYKELLNYPGLFNFATQKATVTQPNFSISGFPFFTGLYGLTVWPINLLVELQGYFVPPESGNYTFTLQGSDDAAILFFANPSTFACGSQNDWPQPREADITVTDTLVPSRTLYLVKGVAYPIRIAYYNGSGDGKLNVSFKDPSGTTHTDWKGYVWQYSNTCSTCTYT,glycan array binding signal (z-score),[1],0.773
same,glycan array binding signal (z-score),[2],1.22
same,glycan array binding signal (z-score),[3],0.946
same,glycan array binding signal (z-score),[4],0.879
same,glycan array binding signal (z-score),[5],1.05
same,glycan array binding signal (z-score),GlcNAc(b1-3)Fuc,-0.288
same,glycan array binding signal (z-score),GlcNAc(b1-3)Gal,0.927
same,glycan array binding signal (z-score),[6],-0.576
same,glycan array binding signal (z-score),GlcNAc(b1-3)Gal(b1-4)Glc,0.837
same,glycan array binding signal (z-score),[7],0.929
same,glycan array binding signal (z-score),[8],-0.003
same,glycan array binding signal (z-score),[9],-2.61
same,glycan array binding signal (z-score),[10],0.839
same,glycan array binding signal (z-score),[11],0.561
same,glycan array binding signal (z-score),[12],-0.374
same,glycan array binding signal (z-score),[13],-1.99
same,glycan array binding signal (z-score),[14],-0.975
same,glycan array binding signal (z-score),[15],-2.3
same,glycan array binding signal (z-score),[16],0.437
same,glycan array binding signal (z-score),[17],-0.321
same,glycan array binding signal (z-score),[18],-2.17
same,glycan array binding signal (z-score),[19],-2.16
same,glycan array binding signal (z-score),[20],-0.567

# Given with bars between the fields: part of the list above
binder | measurement | setting | value
Pwp1 (Candida glabrata) (protein) MGSSHHHHHHSSGLVPRGSHMASANPISITNVCQFPDNWARTAGFQATTVRLGLTIASNTYKELLNYPGLFNFATQKATVTQPNFSISGFPFFTGLYGLTVWPINLLVELQGYFVPPESGNYTFTLQGSDDAAILFFANPSTFACGSQNDWPQPREADITVTDTLVPSRTLYLVKGVAYPIRIAYYNGSGDGKLNVSFKDPSGTTHTDWKGYVWQYSNTCSTCTYT | glycan array binding signal (z-score) | [17] | -0.321
same | glycan array binding signal (z-score) | [18] | -2.17
